Assay: Superoxide generation by visible light irradiation of an aqueous solution of redox reaction catalyst, electron donor and CYPMPO, measured by ESR

## Cc1cc2nc3c(=O)[nH]c(=O)nc-3n(C[C@H](O)[C@H](O)[C@H](O)COP(=O)(O)O)c2cc1C [FMN, flavin mononucleotide]
FMN 5 μmol/L, electron donor EDTA 5 mmol/L
  Shape of ESR spectrum versus standard spectrum of superoxide: in a similarity relationship
FMN 10 μmol/L, electron donor TMD 10 mmol/L
  Shape of ESR spectrum versus standard spectrum of superoxide: different

Reference: patent US20120255853A1, “Method for Producing Superoxide, Method for Evaluating Superoxide Scavenging Ability, Device for Producing Superoxide, and Device for Evaluating Superoxide Scavenging Ability” (Sapporo Medical University, priority 2009, published 2012)
